Laboratory results published in PubChem BioAssay AID445 (National Center for Advancing Translational Sciences (NCATS), 2006).
The list shows a part of the results. The main result of the screen is listed elsewhere. These columns were measured beside it and carry no call. The list favours compounds with an active or inconclusive main result. Potencies come from curve fits of mixed quality, noted in brackets.

Assay: IkB Signaling
Details: ABC-DLBCL IkBa-CBG/CBR dual luciferase ratio (green luciferase fused to IkBa over red control in OCI-Ly3 lymphoma cells), 4 h
Summary of the method: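 Curves were fitted separately to fusion (green), unfused (red) and ratio luminescence, then classed by r2, magnitude and activity. Cells: OCI-Ly3, 4 h compound plus doxycycline at 37C; 10 uM MG-132 defined full response.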

[1] = measured here: control luc red channel unless noted
[2] = measured here: IkB-luc green channel
[3] = measured here: control luc red channel

COc1ccc(NC(=O)C2CCN(C(=O)c3sc4nc[nH]c(=O)c4c3C)CC2)cc1Cl
AC50 [1]: 20 µM [rising, partial curve, poor fit]

COc1ccccc1N1CCN(C(=O)c2cccc(N3C(=O)NC4CC3(C)Oc3ccccc34)c2)CC1 (configuration not stated)
AC50 [1]: 15.8 µM [falling, partial curve]

COc1ccc(NC(=O)c2oc3ccccc3c2NC(=O)c2cc(C)cc(C)c2)c(OC)c1
AC50 [1]: 1.26 µM [rising, full curve, poor fit]

COC(=O)c1c(-c2cccs2)csc1NC(=O)c1cccnc1
AC50 [1]: 39.8 µM [falling, single point]

CCOC(=O)C1CCN(c2nc3ccccc3nc2Cl)CC1
AC50 [1]: 39.8 µM [falling, single point]

CCN(C(=O)CSc1nc2ccccc2n1Cc1ccccc1C#N)c1ccccc1
AC50 [1]: 25.1 µM [falling, partial curve]

COc1ccc(-n2nc(C(=O)Nc3ccc(C)cn3)c3c4ccccc4n(C)c3c2=O)cc1Cl
AC50 [1]: 15.8 µM [rising, partial curve, poor fit]

Cc1ccc2c(C)c(C(=O)NCC(c3ccc(Cl)cc3)N3CCOCC3)oc2c1 (configuration not stated)
AC50 [1]: 15.8 µM [falling, partial curve]

COc1cc(NC(=O)C2CCN(c3nnc(C)c4c(C)n(-c5ccccc5)nc34)CC2)cc(OC)c1
AC50 [1]: 25.1 µM [falling, partial curve]

CCOc1ccc(S(=O)(=O)Nc2cccc(Cl)c2)cc1
AC50 [1]: 12.6 µM [falling, partial curve]

Cc1ccc2c(c1)c(=O)c1ccccc1n2CCCC(=O)Nc1ccc(Cl)cc1C
AC50 [1]: 7.94 µM [falling, partial curve]

Oc1ccc2ccccc2c1C=NCc1cn2ccsc2n1
AC50 [1]: 31.6 µM [rising, partial curve] [measured here: IkB-luc green channel]

C[C@@H]1O[C@H](O[C@@H]2[C@H](C)O[C@H](O[C@@H]3[C@H](C)O[C@H](O[C@H]4CC[C@]5(C)[C@@H](CC[C@@H]6[C@H]5C[C@@H](O)[C@]5(C)[C@@H](C7=CC(=O)OC7)CC[C@]65O)C4)C[C@@H]3O)C[C@@H]2O)C[C@H](O)[C@@H]1O
AC50 [1]: 0.794 µM [falling, full curve]

Cc1oc(-c2ccccc2F)nc1CSCC(=O)NCc1ccc2c(c1)OCO2
AC50 [1]: 15.8 µM [falling, partial curve]

CCOC(=O)c1cc2c(N)c(C(=O)c3cc(C#N)c(SC)nc3C)sc2nc1C
AC50 [1]: 15.8 µM [falling, partial curve]

COc1ccc(OCC(=O)Nc2ccc(Cl)c(-c3nc4ncccc4o3)c2)cc1
AC50 [1]: 25.1 µM [falling, partial curve]

O=C(NCc1nc2ccccc2n1Cc1ccccc1Cl)c1ccccc1
AC50 [1]: 31.6 µM [falling, partial curve]

COCCn1c(SCC(=O)c2c(C)[nH]c3ccccc23)nc2cc(C(=O)NC(C)C)ccc2c1=O
AC50 [1]: 12.6 µM [falling, partial curve]

CCOc1ccc(CCNC(=O)Cn2ccc3cc(S(=O)(=O)N4CCCCC4)ccc32)cc1
AC50 [1]: 12.6 µM [falling, partial curve]

COc1ccccc1N1CCN(Cc2cc(Br)c(O)c3ncccc23)CC1
AC50 [1]: 3.16 µM [rising, partial curve] [measured here: IkB-luc green channel]

COc1cccc(CNC(=O)c2ccc3c(c2)N(Cc2ccc(F)cc2Cl)C(=O)c2ccccc2S3)c1
AC50 [1]: 6.31 µM [falling, partial curve]

Cc1ccc(Cl)cc1NC(=O)Nc1cn(CC(C)C)c(=O)c2ccccc12
AC50 [1]: 39.8 µM [falling, single point]

Cc1ccccc1CN1C(=O)c2ccccc2Sc2ccc(C(=O)NCc3ccccc3)cc21
AC50 [1]: 12.6 µM [falling, partial curve]

CC1CCN(S(=O)(=O)c2ccc3c(c2)N(CC(=O)NCc2ccccc2)C(=O)CO3)CC1
AC50 [1]: 31.6 µM [falling, single point]

CCOC(=O)N1CCN(C(=O)CSCC(=O)Nc2nc(-c3cccs3)cs2)CC1
AC50 [1]: 12.6 µM [falling, partial curve]

O=C(CSc1nc(Nc2ccccc2)nc(N2CCOCC2)n1)Nc1ccc2c(c1)OCCO2
AC50 [1]: 10 µM [falling, partial curve]

COc1ccc(OC)c(NC2=C(c3ccccc3)C(=O)c3ccccc32)c1
AC50 [2]: 6.31 µM [rising, single point] | AC50 [3]: 5.01 µM [falling, partial curve]

Oc1ccccc1Nc1nc(-c2ccccc2)c2cc(Cl)ccc2n1
AC50 [1]: 6.31 µM [falling, full curve]

Cn1cc(CC(=O)Nc2cccc(C#N)c2)c2ccccc21
AC50 [1]: 10 µM [falling, partial curve]

CCN(CC)c1nc(-c2ccc(C(C)(C)C)cc2)nc2ccccc12
AC50 [1]: 15.8 µM [falling, single point]

O=C1CS(=O)(=O)C2(C(=O)N(Cc3cccc(F)c3)c3ccccc32)N1c1ccccc1 (configuration not stated)
AC50 [1]: 10 µM [falling, partial curve]

CCc1ccccc1N(C)C(=O)c1cn(CC(C)C)c(=O)c2cc(OC)c(OC)cc12
AC50 [1]: 3.98 µM [falling, full curve]

COc1ccc(-c2nn(CC(=O)NC3CCCC3)c3c2cnc2ccc(F)cc23)cc1
AC50 [1]: 0.631 µM [rising, full curve]

Clc1ccc(Cn2cc(/C=N/n3cnnc3)c3ccccc32)cc1
AC50 [1]: 25.1 µM [falling, partial curve]

Cc1c(NC(=O)c2cc([N+](=O)[O-])ccc2N2CCOCC2)cccc1-c1nc2ccccc2o1
AC50 [1]: 7.94 µM [falling, partial curve]

Cc1ccc(NC(=O)c2nc(S(C)(=O)=O)ncc2N(Cc2ccccc2)Cc2ccco2)c(C)c1
AC50 [1]: 39.8 µM [falling, single point]

Cc1nn(-c2ccc(F)cc2)c(-n2cccc2)c1C(=O)N1CCN(c2ccc(F)cc2)CC1
AC50 [1]: 25.1 µM [falling, single point]

Cc1ccc(CNC(=O)Cn2c3ncccc3c(=O)n2-c2ccccc2)cc1
AC50 [1]: 20 µM [falling, partial curve]

O=C(CSc1ccc(-c2ccccn2)nn1)Nc1ccc(F)c(F)c1
AC50 [1]: 15.8 µM [falling, single point]

CCOc1ccc(CCNC(=O)CCc2c(C)nc3c(c(C)nn3-c3ccccc3)c2C)cc1OCC
AC50 [1]: 12.6 µM [falling, partial curve]

Cc1[nH]c2ccc(-c3nnc(SCC(=O)NCc4ccco4)n3Cc3ccccc3)cc2c1C
AC50 [1]: 10 µM [falling, partial curve]

O=C(Nc1ccc(Br)c(Cl)c1)c1ccco1
AC50 [1]: 25.1 µM [falling, partial curve]

Cc1ccc(C2CC(=O)N(Cc3ccccc3F)c3c2c(C)nn3-c2nc(C)cc(C)n2)cc1 (configuration not stated)
AC50 [1]: 25.1 µM [falling, partial curve, poor fit]

CCc1cccc2c1NC(=O)[C@]21[C@@H]2C(=O)N(Cc3ccccc3)C(=O)[C@@H]2[C@@H]2CCCN21
AC50 [1]: 15.8 µM [falling, partial curve]

CCOc1ccc(CCNC(=O)c2ccc3c(c2)c(C)c(C)n3C)cc1
AC50 [1]: 25.1 µM [falling, single point]

COC(=O)c1ccc(NC(=O)CSc2nc(=O)n(Cc3ccco3)c3c2CCC3)cc1
AC50 [1]: 39.8 µM [falling, single point]

COc1cc(C(=O)N(Cc2ccc(C(C)C)cc2)C2CCS(=O)(=O)C2)cc(OC)c1OC (configuration not stated)
AC50 [1]: 0.794 µM [rising, full curve, poor fit]

O=C1c2[nH]nc(-c3ccccc3O)c2C(c2ccccc2F)N1Cc1ccco1 (configuration not stated)
AC50 [1]: 25.1 µM [falling, partial curve]

Cc1ccccc1C(=O)N1CCC(c2nc3ccccc3s2)CC1
AC50 [1]: 15.8 µM [falling, partial curve]

COc1ccc(NC(=O)c2cc(-c3ccccc3OC)on2)cc1
AC50 [2]: 15.8 µM [rising, partial curve] | AC50 [3]: 7.94 µM [falling, partial curve]

O=C(Nc1cccnc1)c1cc(-c2cccs2)on1
AC50 [1]: 2.51 µM [falling, full curve]

CC(C)c1ccc(NS(=O)(=O)c2ccc3[nH]cc(C(=O)NC4CCCC4)c(=O)c3c2)cc1
AC50 [1]: 25.1 µM [falling, partial curve]

Cc1ccc(N2CC3=C(C2=O)C(c2ccc(Br)cc2)NC(=O)N3C)cc1 (configuration not stated)
AC50 [1]: 25.1 µM [falling, single point]

Cc1ccccc1CNC(=O)c1ccc(NC(=O)c2nsc3ccccc23)cc1
AC50 [1]: 0.2 µM [falling, full curve]

CC(=O)N1CCN(c2ccc(NC(=O)c3ccccc3Br)cc2Cl)CC1
AC50 [1]: 20 µM [falling, partial curve]

CCn1c(=O)cc(SCC(=O)Nc2ccc(C)c(F)c2)c2ccccc21
AC50 [1]: 15.8 µM [falling, partial curve]

COc1cccc2sc(Nc3nc(-c4ccccn4)cs3)nc12
AC50 [2]: 0.794 µM [rising, partial curve] | AC50 [3]: 7.94 µM [falling, full curve]

Cc1ccc(-c2nc(C(=O)NCc3ccc(Cl)cc3)c3n2CCCCC3)cc1
AC50 [1]: 39.8 µM [falling, single point]

Cc1nc2ccccc2c(=O)n1NC(=O)c1c(O)c2c(n(CC(C)C)c1=O)CCCC2
AC50 [1]: 12.6 µM [falling, partial curve]
